Results from patent US20110097262A1.
No constants are given. Whether binding was seen depends on the method and setting. Some results given as binding are weak or reduced against the parent protein; the word gives no strength.

Sequences of proteins named here, by UniProt entry; tags and fusion partners are left off. Residues count along the entry.
UniProt P08581, residues 25-932: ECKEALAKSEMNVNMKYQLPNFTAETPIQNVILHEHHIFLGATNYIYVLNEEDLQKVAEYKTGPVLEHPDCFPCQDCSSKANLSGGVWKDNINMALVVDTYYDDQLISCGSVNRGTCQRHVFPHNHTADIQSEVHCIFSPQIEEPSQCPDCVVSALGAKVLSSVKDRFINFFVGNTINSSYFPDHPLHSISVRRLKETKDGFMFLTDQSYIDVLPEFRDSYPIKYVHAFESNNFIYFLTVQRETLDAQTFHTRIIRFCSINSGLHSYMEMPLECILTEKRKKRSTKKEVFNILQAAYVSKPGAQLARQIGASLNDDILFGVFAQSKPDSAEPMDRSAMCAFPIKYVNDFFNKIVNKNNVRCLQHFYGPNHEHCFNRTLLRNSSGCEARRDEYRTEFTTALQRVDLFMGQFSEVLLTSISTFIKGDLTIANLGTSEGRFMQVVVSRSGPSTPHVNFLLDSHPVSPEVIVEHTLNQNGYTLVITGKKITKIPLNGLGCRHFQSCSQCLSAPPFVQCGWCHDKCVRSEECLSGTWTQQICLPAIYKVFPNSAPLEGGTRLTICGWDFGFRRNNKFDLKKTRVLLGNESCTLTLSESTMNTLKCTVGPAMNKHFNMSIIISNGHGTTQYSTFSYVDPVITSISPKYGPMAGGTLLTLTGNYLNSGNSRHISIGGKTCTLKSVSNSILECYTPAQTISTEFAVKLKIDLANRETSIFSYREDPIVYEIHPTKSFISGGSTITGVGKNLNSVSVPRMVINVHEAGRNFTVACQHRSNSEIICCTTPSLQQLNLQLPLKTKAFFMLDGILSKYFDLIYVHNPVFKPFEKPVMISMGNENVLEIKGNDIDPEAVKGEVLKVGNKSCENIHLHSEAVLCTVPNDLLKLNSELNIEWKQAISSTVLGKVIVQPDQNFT

Molecular target: recombinant dimeric c-Met from R&D Systems (UniProt P08581)
Test: direct ELISA, recombinant dimeric c-Met coated at 1.25 µg/ml, anti-mouse IgG HRP detection

binding: binds
B1: murine 224G11 Mab (antibody, mouse IgG1, V domains shown)
VH: EVQLQQSGPELVKPGASVKISCKTSGYIFTAYTMHWVRQSLGESLDWIGGIKPNNGLANYNQKFKGKATLTVDKSSSTAYMDLRSLTSEDSAVYYCARSEITTEFDYWGQGTALTVSS
VL: DIVLTQSPASLAVSLGQRATISCRASESVDSYANSFMHWYQQKPGQPPKLLIYRASNLESGIPARFSGSGSRTDFTLTINPVEADDVATYYCQQSKEDPLTFGSGTKLEMKR
